Out of some 400,000 compounds screened, about 13,000 (3.2%) were called active. Inconclusive means that the source gave no clear call. Such entries were picked first, then a sample of the others. The call rests on the fitted dose curve; in most records, active means well fitted cell-killing curve with a large enough effect; inconclusive means small, poorly fitted or top-dose-only effect, or effect the other way; inactive means flat fitted curve, though single readings scatter. Potencies beside an inconclusive call are fits to weak or partial responses and may not hold up.
Test: qHTS assay for MDR1-selective chemotherapeutics: Primary screen using the drug-selected MDR subline cells KB-V1; further: nearly all actives have a fitted effect of over 60% in size
Conditions: KB-V1 MDR cells viability, CellTiter-Glo, 72 h; series mostly up to 46.1 µM
Outline: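 qHTS viability screen in drug-selected KB-V1 MDR cells: 72 h compound treatment at 37 degrees C, ATP luminescence end point.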
Potency means the concentration at half of the fitted maximal effect.

SMILES	Potency
CCCN1Cc2cccc(C(N)=O)c2C1=O	inconclusive: 16.4 µM [cytotoxic, partial curve, poor fit]
COc1ccccc1OCCNC(=O)C1CC(=O)N(c2ccccc2OC)C1 (configuration not stated)	inconclusive: 29.1 µM [rising, single point]
CCCn1c(SCC(=O)N2CCc3ccccc3C2)nc2c1c(=O)n(C)c(=O)n2C	active: 3.66 µM
Cc1cc(NC(=O)CCc2ccccc2)c([N+](=O)[O-])cc1C	inconclusive: 16.4 µM [cytotoxic, single point]
O=C(c1ccc(NS(=O)(=O)c2cccs2)cc1)N1CCOCC1	inactive
CCCN1C2CCCC1CC(NC(=O)Nc1cccc(C(C)=O)c1)C2 (configuration not stated)	inactive
CC(C)(C)c1ccc(S(=O)(=O)N2CCC(c3ccncc3)CC2)cc1	inconclusive: 29.1 µM [cytotoxic, single point]
O=C(O)c1cc2c(cc1NC(=O)C1CCCC1)OCCO2	inactive
O=C(c1ccco1)N1CCN(c2ncnc3c(-c4ccccc4)nsc23)CC1	inconclusive: 14.6 µM [cytotoxic, single point]
CC(C)N(Cc1ccccc1)C(=O)Cn1c(=O)cnc2ccccc21	inconclusive: 13 µM [cytotoxic, partial curve]
O=C1CN(C(=O)c2ccco2)C(c2ccccc2)c2cc(Cl)ccc2N1 (configuration not stated)	inactive
CC1Cn2c(nnc2C23CC4CC(CC(C4)C2)C3)S1 (configuration not stated)	inactive
O=C(NNc1nc(-c2ccccc2)cs1)c1ccccc1	active: 16.4 µM
O=C(CNC(=O)c1ccccc1)N/N=C/c1ccc([N+](=O)[O-])s1	inconclusive: 0.461 µM [rising, full curve, poor fit]
Cc1ccc(NC(=O)c2ccnc(C(C)(C)C)c2)cc1	inactive
CCCCOC(=O)Nc1nnc(-c2ccccc2OC)s1	inactive
Cc1nc2nc(C)c(CCC(=O)N3CCN(c4ccccn4)CC3)c(C)n2n1	inconclusive: 29.1 µM [cytotoxic, single point]
CC1(C)CC(O)CC(C)(C)N1CC(O)COCCOc1ccc(Br)cc1 (configuration not stated)	inconclusive: 20.6 µM [cytotoxic, partial curve]
CC1(Oc2cccc(Cl)c2)CCN(Cc2ccc(OC(F)(F)F)cc2)C1 (configuration not stated)	inactive
CC1(c2ccccc2)NC(=O)N(CC(=O)NC(=O)NCc2ccco2)C1=O (configuration not stated)	inconclusive: 20.6 µM [rising, partial curve, poor fit]
CCC(CC)c1nn2c(N)c(/C=C3\C(C)=Nc4ccccc43)c(=O)nc2s1	inconclusive: 23.1 µM [cytotoxic, partial curve, poor fit]
Cc1cc(=O)[nH]c(SCC(=O)NC2CCCCCCC2)n1	inconclusive: 18.4 µM [cytotoxic, single point]
COc1ccccc1NS(=O)(=O)c1cc(NC(=O)Nc2ccccc2)ccc1N1CCCCC1	inconclusive: 5.17 µM [cytotoxic, partial curve]
CCn1ccnc1CN(C)Cc1cn(-c2cc(C)ccc2C)nc1-c1ccccc1	inactive

Another view of 13 compounds above.
SMILES | Potency
CC1Cn2c(nnc2C23CC4CC(CC(C4)C2)C3)S1 (configuration not stated) | inactive
O=C(NNc1nc(-c2ccccc2)cs1)c1ccccc1 | active: 16.4 µM
O=C(CNC(=O)c1ccccc1)N/N=C/c1ccc([N+](=O)[O-])s1 | inconclusive: 0.461 µM [rising, full curve, poor fit]
Cc1ccc(NC(=O)c2ccnc(C(C)(C)C)c2)cc1 | inactive
CCCCOC(=O)Nc1nnc(-c2ccccc2OC)s1 | inactive
Cc1nc2nc(C)c(CCC(=O)N3CCN(c4ccccn4)CC3)c(C)n2n1 | inconclusive: 29.1 µM [cytotoxic, single point]
CC1(C)CC(O)CC(C)(C)N1CC(O)COCCOc1ccc(Br)cc1 (configuration not stated) | inconclusive: 20.6 µM [cytotoxic, partial curve]
CC1(Oc2cccc(Cl)c2)CCN(Cc2ccc(OC(F)(F)F)cc2)C1 (configuration not stated) | inactive
CC1(c2ccccc2)NC(=O)N(CC(=O)NC(=O)NCc2ccco2)C1=O (configuration not stated) | inconclusive: 20.6 µM [rising, partial curve, poor fit]
CCC(CC)c1nn2c(N)c(/C=C3\C(C)=Nc4ccccc43)c(=O)nc2s1 | inconclusive: 23.1 µM [cytotoxic, partial curve, poor fit]
Cc1cc(=O)[nH]c(SCC(=O)NC2CCCCCCC2)n1 | inconclusive: 18.4 µM [cytotoxic, single point]
COc1ccccc1NS(=O)(=O)c1cc(NC(=O)Nc2ccccc2)ccc1N1CCCCC1 | inconclusive: 5.17 µM [cytotoxic, partial curve]
CCn1ccnc1CN(C)Cc1cn(-c2cc(C)ccc2C)nc1-c1ccccc1 | inactive

The listing continues.

SMILES	Potency
CCOc1ccc(S(=O)(=O)N2CCOCC2)cc1NC(=O)CSCC(=O)Nc1ccc(C)cc1	inactive
Cc1n[nH]c(C)c1CCCCOc1ccccc1	inconclusive: 29.1 µM [cytotoxic, single point]
COc1ccc(S(=O)(=O)NCc2ccccn2)cc1NC(=O)c1ccccc1	inconclusive: 5.17 µM [cytotoxic, full curve, poor fit]
COC(=O)c1c(NC(=O)c2c(OC)cccc2OC)sc2c1CCCC2	inactive
CC(C(=O)N1CCCCC1)N(C)CC(=O)Nc1ccc(Cl)cc1 (configuration not stated)	inconclusive: 16.4 µM [cytotoxic, single point]
CC1=CC(C)C(C[N+]2(C)CCCCC2)C(C)C1 (configuration not stated)	inactive
Cc1cccc(N=C2Sc3nc4c(C)c(C)ccc4cc3CN2CCN2CCOCC2)c1	inactive
COC(=O)CCNC(=O)c1ccc2nc(Cc3ccc(OC)c(OC)c3)oc2c1	inactive
Clc1ccc(COc2cccc(CNCc3ccncc3)c2)cc1	active: 6.51 µM
C=C(C)CNC(=S)N/N=C(\C)c1ccc(-n2ccnc2)cc1	active: 14.6 µM
COc1cccc(NC(=O)c2oc3ccc(S(=O)(=O)N4CCOCC4)cc3c2C)c1	inconclusive: 18.4 µM [cytotoxic, partial curve]
CC(=O)c1cccc(Nc2ncnc3c2cnn3-c2cccc(Cl)c2)c1	inconclusive: 0.731 µM [rising, full curve, poor fit]
O=C(CN1C(=O)NC2(CCCC2)C1=O)N1CCN(c2ccccc2O)CC1	inconclusive: 23.1 µM [rising, single point]
CCc1ccccc1N1C(=O)CC(N2CCc3ccccc32)C1=O (configuration not stated)	inconclusive: 2.91 µM [cytotoxic, partial curve, poor fit]
CN1CCc2c(sc(NC(=O)c3ccc(S(=O)(=O)N4CCCC4)cc3)c2C(N)=O)C1	inactive
C#CCN(C[C@@H]1[C@@H](OC(=O)NCCCCCC)[C@@H](OC(=O)NCCCCCC)Cn2c(=O)n(CCCCCC)c(=O)n21)S(=O)(=O)c1ccc(C)cc1	inconclusive: 20.6 µM [rising, single point]
Cc1ccc(NC(=O)CSc2nncc3ccccc23)cc1	inactive
CC(=O)Nc1ccc(SCC(=O)NC(=O)c2ccc(Cl)cc2)cc1	inconclusive: 29.1 µM [rising, partial curve, poor fit]
O=C(c1cc(-c2cccnc2)nc2ccccc12)N1CCN(S(=O)(=O)c2ccc(Cl)s2)CC1	active: 9.2 µM
CC(=O)Nc1ccc(C2=NN(C)C(=NCc3ccccc3)SC2)cc1	inconclusive: 18.4 µM [cytotoxic, single point]
O=C(c1ccc(Cl)c(Cl)c1)N1CCC(=O)N(C(CO)Cc2ccccc2)CC1 (configuration not stated)	inconclusive: 29.1 µM [cytotoxic, single point]
OCCC1CN(Cc2cccc3c2OCO3)CCN1C1CCCCC1 (configuration not stated)	inconclusive: 13 µM [cytotoxic, partial curve, poor fit]
CCCCCCCCN1C(=O)[C@H](CC(=O)N2CCCC2)C[C@@]2(C(=O)OCC)CCCC=C12	inconclusive: 5.8 µM [cytotoxic, partial curve]

From PubChem BioAssay AID1347076 (National Center for Advancing Translational Sciences (NCATS), 2019)
